Experimental data: ChEMBL document CHEMBL5674883, “The Heterochromatin Landscape in Migrating Cells and the Importance of H3K27me3 for Associated Transcriptome Alterations” (Cells, 2018)
The source gives many values for each of these; only a part stands here.

Chains of the proteins cited; added tags and fusions are not shown.
UniProt Q61188, whole entry: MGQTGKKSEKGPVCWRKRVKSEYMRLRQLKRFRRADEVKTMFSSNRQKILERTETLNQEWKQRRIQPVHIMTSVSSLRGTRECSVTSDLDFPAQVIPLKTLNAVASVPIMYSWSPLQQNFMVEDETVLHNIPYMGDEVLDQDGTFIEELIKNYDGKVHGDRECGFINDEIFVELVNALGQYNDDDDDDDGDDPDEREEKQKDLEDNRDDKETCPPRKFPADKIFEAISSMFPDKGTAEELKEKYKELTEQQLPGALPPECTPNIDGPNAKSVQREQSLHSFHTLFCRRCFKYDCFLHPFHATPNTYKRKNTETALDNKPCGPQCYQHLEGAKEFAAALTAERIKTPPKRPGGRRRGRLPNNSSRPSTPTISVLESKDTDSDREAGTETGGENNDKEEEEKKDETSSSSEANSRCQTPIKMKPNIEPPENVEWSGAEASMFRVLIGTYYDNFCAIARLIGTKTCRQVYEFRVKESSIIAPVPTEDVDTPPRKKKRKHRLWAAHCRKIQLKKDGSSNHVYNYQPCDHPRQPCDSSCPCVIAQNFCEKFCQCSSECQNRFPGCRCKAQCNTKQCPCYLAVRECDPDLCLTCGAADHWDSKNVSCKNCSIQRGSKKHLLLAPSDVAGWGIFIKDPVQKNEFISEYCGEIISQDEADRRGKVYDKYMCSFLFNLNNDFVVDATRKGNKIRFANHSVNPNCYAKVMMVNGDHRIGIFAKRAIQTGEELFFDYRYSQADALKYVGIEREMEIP

Legend:
Type in all cases: cell-based
[1] = target: T1, RNA polymerase II (Mus musculus) (UniProt P08775+Q8CFI7+P97760+A0A3Q4L2S8+Q80UW8+P61219+P62488+Q923G2+P60898+O08740+Q63871+P62876); assay: Inhibition of RNA polymerase II in mouse B16-F1 migrating cells assessed as fold change in Ssb-RNA stability at 0.1 mM measured by ChIP-seq analysis relative to control cells
[2] = target: T1, RNA polymerase II (Mus musculus); assay: Inhibition of RNA polymerase II in mouse B16-F1 migrating cells assessed as fold change in Tmem42-RNA stability at 0.1 mM measured by ChIP-seq analysis relative to control cells
[3] = target: T1, RNA polymerase II (Mus musculus); assay: Inhibition of RNA polymerase II in mouse B16-F1 migrating cells assessed as fold change in Brip1-RNA stability at 0.1 mM measured by ChIP-seq analysis relative to control cells
[4] = target: T1, RNA polymerase II (Mus musculus); assay: Inhibition of RNA polymerase II in mouse B16-F1 migrating cells assessed as fold change in Wdr37-RNA stability at 0.1 mM measured by ChIP-seq analysis relative to control cells
[5] = target: T1, RNA polymerase II (Mus musculus); assay: Inhibition of RNA polymerase II in mouse B16-F1 migrating cells assessed as fold change in Itga1-RNA stability at 0.1 mM measured by ChIP-seq analysis relative to control cells
[6] = target: T1, RNA polymerase II (Mus musculus); assay: Inhibition of RNA polymerase II in mouse B16-F1 migrating cells assessed as fold change in Dnajc10-RNA stability at 0.1 mM measured by ChIP-seq analysis relative to control cells
[7] = target: T1, RNA polymerase II (Mus musculus); assay: Inhibition of RNA polymerase II in mouse B16-F1 migrating cells assessed as fold change in Ldha-RNA stability at 0.1 mM measured by ChIP-seq analysis relative to control cells
[8] = target: T1, RNA polymerase II (Mus musculus); assay: Inhibition of RNA polymerase II in mouse B16-F1 migrating cells assessed as fold change in Rps5-RNA stability at 0.1 mM measured by ChIP-seq analysis relative to control cells
[9] = target: T1, RNA polymerase II (Mus musculus); assay: Inhibition of RNA polymerase II in mouse B16-F1 migrating cells assessed as fold change in Phip-RNA stability at 0.1 mM measured by ChIP-seq analysis relative to control cells
[10] = target: T1, RNA polymerase II (Mus musculus); assay: Inhibition of RNA polymerase II in mouse B16-F1 migrating cells assessed as fold change in Use1-RNA stability at 0.1 mM measured by ChIP-seq analysis relative to control cells
[11] = target: T1, RNA polymerase II (Mus musculus); assay: Inhibition of RNA polymerase II in mouse B16-F1 migrating cells assessed as fold change in Smc6-RNA stability at 0.1 mM measured by ChIP-seq analysis relative to control cells
[12] = target: T1, RNA polymerase II (Mus musculus); assay: Inhibition of RNA polymerase II in mouse B16-F1 migrating cells assessed as fold change in Sytl2-RNA stability at 0.1 mM measured by ChIP-seq analysis relative to control cells
[13] = target: T1, RNA polymerase II (Mus musculus); assay: Inhibition of RNA polymerase II in mouse B16-F1 migrating cells assessed as fold change in Scaf11-RNA stability at 0.1 mM measured by ChIP-seq analysis relative to control cells
[14] = target: T1, RNA polymerase II (Mus musculus); assay: Inhibition of RNA polymerase II in mouse B16-F1 migrating cells assessed as fold change in Eif1a-RNA stability at 0.1 mM measured by ChIP-seq analysis relative to control cells
[15] = target: T1, RNA polymerase II (Mus musculus); assay: Inhibition of RNA polymerase II in mouse B16-F1 migrating cells assessed as fold change in Ap2s1-RNA stability at 0.1 mM measured by ChIP-seq analysis relative to control cells
[16] = target: T1, RNA polymerase II (Mus musculus); assay: Inhibition of RNA polymerase II in mouse B16-F1 migrating cells assessed as fold change in Pms1-RNA stability at 0.1 mM measured by ChIP-seq analysis relative to control cells
[17] = target: T1, RNA polymerase II (Mus musculus); assay: Inhibition of RNA polymerase II in mouse B16-F1 migrating cells assessed as fold change in Dld-RNA stability at 0.1 mM measured by ChIP-seq analysis relative to control cells
[18] = target: T1, RNA polymerase II (Mus musculus); assay: Inhibition of RNA polymerase II in mouse B16-F1 migrating cells assessed as fold change in Trappc4-RNA stability at 0.1 mM measured by ChIP-seq analysis relative to control cells
[19] = target: T1, RNA polymerase II (Mus musculus); assay: Inhibition of RNA polymerase II in mouse B16-F1 migrating cells assessed as fold change in Agpat2-RNA stability at 0.1 mM measured by ChIP-seq analysis relative to control cells
[20] = target: T1, RNA polymerase II (Mus musculus); assay: Inhibition of RNA polymerase II in mouse B16-F1 migrating cells assessed as fold change in Yme1l1-RNA stability at 0.1 mM measured by ChIP-seq analysis relative to control cells
[21] = target: T1, RNA polymerase II (Mus musculus); assay: Inhibition of RNA polymerase II in mouse B16-F1 migrating cells assessed as fold change in Ppp1r12a-RNA stability at 0.1 mM measured by ChIP-seq analysis relative to control cells
[22] = target: T1, RNA polymerase II (Mus musculus); assay: Inhibition of RNA polymerase II in mouse B16-F1 migrating cells assessed as fold change in Eif3f-RNA stability at 0.1 mM measured by ChIP-seq analysis relative to control cells
[23] = target: Histone-lysine N-methyltransferase EZH2 (Mus musculus) (UniProt Q61188); assay: Inhibition of EZH2 in mouse B16-F1 migrating cells assessed as fold change in H3K27me3-independent regulated D130058E05Rik-mRNA expression at 3 uM measured by ChIP-seq analysis relative to control cells
[24] = target: Histone-lysine N-methyltransferase EZH2 (Mus musculus) (UniProt Q61188); assay: Inhibition of EZH2 in mouse B16-F1 migrating cells assessed as fold change in H3K27me3-buffered regulated Abca12-mRNA expression at 3 uM measured by ChIP-seq analysis relative to control cells
[25] = target: Histone-lysine N-methyltransferase EZH2 (Mus musculus) (UniProt Q61188); assay: Inhibition of EZH2 in mouse B16-F1 migrating cells assessed as fold change in H3K27me3-buffered regulated Gls-mRNA expression at 3 uM measured by ChIP-seq analysis relative to control cells
[26] = target: Histone-lysine N-methyltransferase EZH2 (Mus musculus) (UniProt Q61188); assay: Inhibition of EZH2 in mouse B16-F1 migrating cells assessed as fold change in H3K27me3-dependent regulated Hrct1-mRNA expression at 3 uM measured by ChIP-seq analysis relative to control cells
[27] = target: Histone-lysine N-methyltransferase EZH2 (Mus musculus) (UniProt Q61188); assay: Inhibition of EZH2 in mouse B16-F1 migrating cells assessed as fold change in H3K27me3-independent regulated Sema4g-mRNA expression at 3 uM measured by ChIP-seq analysis relative to control cells
[28] = target: Histone-lysine N-methyltransferase EZH2 (Mus musculus) (UniProt Q61188); assay: Inhibition of EZH2 in mouse B16-F1 migrating cells assessed as fold change in H3K27me3-buffered regulated Gab3-mRNA expression at 3 uM measured by ChIP-seq analysis relative to control cells
[29] = target: Histone-lysine N-methyltransferase EZH2 (Mus musculus) (UniProt Q61188); assay: Inhibition of EZH2 in mouse B16-F1 migrating cells assessed as fold change in H3K27me3-buffered regulated Arid5b-mRNA expression at 3 uM measured by ChIP-seq analysis relative to control cells
[30] = target: Histone-lysine N-methyltransferase EZH2 (Mus musculus) (UniProt Q61188); assay: Inhibition of EZH2 in mouse B16-F1 migrating cells assessed as fold change in H3K27me3-buffered regulated Slc6a17-mRNA expression at 3 uM measured by ChIP-seq analysis relative to control cells

**Q.** What does the source list for `OC[C@H]1O[C@@H](n2cnc3cc(Cl)c(Cl)cc32)[C@H](O)[C@@H]1O`?
**A.** log2FC [1]: -1.18; log2FC [2]: 0.56; log2FC [3]: -0.57; log2FC [4]: -0.6; log2FC [5]: -0.64; log2FC [6]: -0.4; log2FC [7]: 0.64; log2FC [8]: 0.45; log2FC [9]: -0.75; log2FC [10]: 0.56; log2FC [11]: -0.97; log2FC [12]: -0.43; log2FC [13]: -0.47; log2FC [14]: -0.44; log2FC [15]: 0.54; log2FC [16]: -0.8; log2FC [17]: -0.62; log2FC [18]: 0.4; log2FC [19]: 0.42; log2FC [20]: -0.88; log2FC [21]: -0.6; log2FC [22]: 0.6

**Q.** With `CCCc1cc(C)[nH]c(=O)c1CNC(=O)c1cc(-c2ccnc(N3CCN(C)CC3)c2)cc2c1cnn2C(C)C` as the molecule, how does the log2FC [23] read?
**A.** -0.76

**Q.** And the log2FC [24]?
**A.** -0.49

**Q.** What about the log2FC [25] of the same molecule?
**A.** -0.42

**Q.** And the log2FC [26]?
**A.** 0.34

**Q.** And the log2FC [27]?
**A.** 0.48

**Q.** And the log2FC [28]?
**A.** -0.85

**Q.** And the log2FC [29]?
**A.** -0.54

**Q.** What about the log2FC [30] of the same molecule?
**A.** 0.69
